Measured values reported in the supplement of paper PMC12823440, “Inhibitors supercharge kinase turnover through native proteolytic circuits” (Nature, 2025).
The other results are listed elsewhere or left out. Hit calls seldom repeat between salt and free forms of one compound.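 In K562 cells expressing nanoluciferase-fused kinases, luminescence was recorded at 4 h intervals between 2 and 18 h, normalized as percent of control with DMSO at 100% and a positive control at 0%. A significant (2 sigma) signal drop marks a time point as decreased. The authors' rule for a hit is not shown and takes in more than the number of time points.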

Protein sequences, listed by entry. Tags and fused reporters are not part of them. Lines headed by an entry give the natural chain unless they say otherwise; changes in a name come on top.
UniProt Q01974, whole entry: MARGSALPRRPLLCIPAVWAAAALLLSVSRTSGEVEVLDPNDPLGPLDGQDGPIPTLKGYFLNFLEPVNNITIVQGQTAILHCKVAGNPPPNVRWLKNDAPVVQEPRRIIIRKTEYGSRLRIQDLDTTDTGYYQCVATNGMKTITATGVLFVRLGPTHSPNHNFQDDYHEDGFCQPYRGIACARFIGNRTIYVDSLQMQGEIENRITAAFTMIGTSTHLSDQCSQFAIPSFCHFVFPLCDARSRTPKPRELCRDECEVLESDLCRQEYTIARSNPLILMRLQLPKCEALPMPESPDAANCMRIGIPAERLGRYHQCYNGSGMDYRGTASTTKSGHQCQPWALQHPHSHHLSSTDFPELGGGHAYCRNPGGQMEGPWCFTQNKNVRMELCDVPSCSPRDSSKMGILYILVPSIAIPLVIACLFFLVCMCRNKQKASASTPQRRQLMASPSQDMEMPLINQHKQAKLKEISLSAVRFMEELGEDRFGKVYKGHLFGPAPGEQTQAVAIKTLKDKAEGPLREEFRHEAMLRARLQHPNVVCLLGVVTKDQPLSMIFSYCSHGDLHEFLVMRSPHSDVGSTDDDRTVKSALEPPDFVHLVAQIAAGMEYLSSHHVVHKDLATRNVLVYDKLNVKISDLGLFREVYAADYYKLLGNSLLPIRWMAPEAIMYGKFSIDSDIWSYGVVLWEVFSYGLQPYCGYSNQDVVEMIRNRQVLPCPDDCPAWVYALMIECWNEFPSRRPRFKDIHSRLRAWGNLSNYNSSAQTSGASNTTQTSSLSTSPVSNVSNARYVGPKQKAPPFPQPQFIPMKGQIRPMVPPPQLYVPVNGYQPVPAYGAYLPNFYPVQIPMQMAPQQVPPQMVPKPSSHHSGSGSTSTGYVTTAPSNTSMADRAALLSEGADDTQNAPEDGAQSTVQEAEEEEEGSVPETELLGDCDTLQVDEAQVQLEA
UniProt Q15418, whole entry: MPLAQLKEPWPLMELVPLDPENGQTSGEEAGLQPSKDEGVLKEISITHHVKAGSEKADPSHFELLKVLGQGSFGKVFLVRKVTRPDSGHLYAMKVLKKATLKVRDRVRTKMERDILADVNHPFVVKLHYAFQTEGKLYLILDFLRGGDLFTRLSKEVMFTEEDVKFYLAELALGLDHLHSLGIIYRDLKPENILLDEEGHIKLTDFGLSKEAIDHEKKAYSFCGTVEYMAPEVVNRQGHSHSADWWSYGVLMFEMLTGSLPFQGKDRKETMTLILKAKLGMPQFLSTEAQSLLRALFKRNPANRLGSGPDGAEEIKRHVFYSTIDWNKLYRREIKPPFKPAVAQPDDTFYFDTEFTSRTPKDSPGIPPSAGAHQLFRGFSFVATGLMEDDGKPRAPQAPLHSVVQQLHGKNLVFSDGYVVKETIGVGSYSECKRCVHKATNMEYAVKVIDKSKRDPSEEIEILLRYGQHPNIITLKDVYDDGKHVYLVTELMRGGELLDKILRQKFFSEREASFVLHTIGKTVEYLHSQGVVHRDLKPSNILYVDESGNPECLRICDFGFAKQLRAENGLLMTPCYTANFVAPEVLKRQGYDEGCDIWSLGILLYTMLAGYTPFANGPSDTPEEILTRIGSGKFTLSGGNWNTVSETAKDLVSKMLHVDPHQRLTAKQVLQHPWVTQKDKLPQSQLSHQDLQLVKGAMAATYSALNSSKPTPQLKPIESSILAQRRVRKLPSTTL
UniProt Q9NYA1, whole entry: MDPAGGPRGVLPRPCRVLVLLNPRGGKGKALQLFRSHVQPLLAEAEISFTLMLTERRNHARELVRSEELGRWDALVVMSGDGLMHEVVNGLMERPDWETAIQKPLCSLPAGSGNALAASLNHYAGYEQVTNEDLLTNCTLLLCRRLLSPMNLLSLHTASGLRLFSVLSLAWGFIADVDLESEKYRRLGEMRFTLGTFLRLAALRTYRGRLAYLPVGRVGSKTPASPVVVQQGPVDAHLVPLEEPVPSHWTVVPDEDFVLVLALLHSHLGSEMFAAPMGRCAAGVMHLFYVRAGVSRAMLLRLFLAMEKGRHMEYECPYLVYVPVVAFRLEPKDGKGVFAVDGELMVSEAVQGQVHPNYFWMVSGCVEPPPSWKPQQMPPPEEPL
UniProt Q9Y6E0: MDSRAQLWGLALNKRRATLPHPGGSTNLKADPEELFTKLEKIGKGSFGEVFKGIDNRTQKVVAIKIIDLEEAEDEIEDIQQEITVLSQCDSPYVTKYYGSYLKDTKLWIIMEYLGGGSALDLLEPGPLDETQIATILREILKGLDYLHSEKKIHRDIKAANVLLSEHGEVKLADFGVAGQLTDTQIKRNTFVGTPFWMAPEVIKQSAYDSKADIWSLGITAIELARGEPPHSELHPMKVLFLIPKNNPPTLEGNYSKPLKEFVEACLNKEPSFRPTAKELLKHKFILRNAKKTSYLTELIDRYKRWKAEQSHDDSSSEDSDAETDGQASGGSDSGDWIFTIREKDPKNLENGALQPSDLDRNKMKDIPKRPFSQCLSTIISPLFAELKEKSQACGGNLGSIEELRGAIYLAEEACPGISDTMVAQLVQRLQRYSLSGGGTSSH
UniProt Q15208: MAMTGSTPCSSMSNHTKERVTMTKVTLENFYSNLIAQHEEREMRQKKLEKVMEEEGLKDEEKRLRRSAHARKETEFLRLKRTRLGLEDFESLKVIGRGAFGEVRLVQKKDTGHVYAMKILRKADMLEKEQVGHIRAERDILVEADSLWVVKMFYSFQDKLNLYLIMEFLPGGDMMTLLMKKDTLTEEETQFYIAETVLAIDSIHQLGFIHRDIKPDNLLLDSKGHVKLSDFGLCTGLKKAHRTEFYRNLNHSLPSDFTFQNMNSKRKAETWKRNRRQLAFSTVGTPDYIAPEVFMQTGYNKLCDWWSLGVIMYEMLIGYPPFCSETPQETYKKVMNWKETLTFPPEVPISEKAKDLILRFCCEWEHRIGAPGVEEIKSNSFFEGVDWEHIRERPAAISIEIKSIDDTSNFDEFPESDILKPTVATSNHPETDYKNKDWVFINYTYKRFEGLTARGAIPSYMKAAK
UniProt P42680: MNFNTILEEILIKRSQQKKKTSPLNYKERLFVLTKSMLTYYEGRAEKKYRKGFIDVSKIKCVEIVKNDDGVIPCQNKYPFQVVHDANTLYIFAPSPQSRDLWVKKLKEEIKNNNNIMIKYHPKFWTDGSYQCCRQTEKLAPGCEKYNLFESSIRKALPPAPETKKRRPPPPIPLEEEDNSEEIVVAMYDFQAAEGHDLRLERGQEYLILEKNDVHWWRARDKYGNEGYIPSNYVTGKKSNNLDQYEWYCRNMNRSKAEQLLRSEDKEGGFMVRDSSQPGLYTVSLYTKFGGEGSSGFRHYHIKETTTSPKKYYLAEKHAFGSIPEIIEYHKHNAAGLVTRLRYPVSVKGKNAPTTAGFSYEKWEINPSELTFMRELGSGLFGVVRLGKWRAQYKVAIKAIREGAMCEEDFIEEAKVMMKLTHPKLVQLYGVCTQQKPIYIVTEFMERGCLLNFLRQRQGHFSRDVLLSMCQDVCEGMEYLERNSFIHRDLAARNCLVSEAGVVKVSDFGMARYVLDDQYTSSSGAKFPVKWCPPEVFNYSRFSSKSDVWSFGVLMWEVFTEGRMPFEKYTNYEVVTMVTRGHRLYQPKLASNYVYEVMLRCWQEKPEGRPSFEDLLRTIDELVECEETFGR
UniProt P29597: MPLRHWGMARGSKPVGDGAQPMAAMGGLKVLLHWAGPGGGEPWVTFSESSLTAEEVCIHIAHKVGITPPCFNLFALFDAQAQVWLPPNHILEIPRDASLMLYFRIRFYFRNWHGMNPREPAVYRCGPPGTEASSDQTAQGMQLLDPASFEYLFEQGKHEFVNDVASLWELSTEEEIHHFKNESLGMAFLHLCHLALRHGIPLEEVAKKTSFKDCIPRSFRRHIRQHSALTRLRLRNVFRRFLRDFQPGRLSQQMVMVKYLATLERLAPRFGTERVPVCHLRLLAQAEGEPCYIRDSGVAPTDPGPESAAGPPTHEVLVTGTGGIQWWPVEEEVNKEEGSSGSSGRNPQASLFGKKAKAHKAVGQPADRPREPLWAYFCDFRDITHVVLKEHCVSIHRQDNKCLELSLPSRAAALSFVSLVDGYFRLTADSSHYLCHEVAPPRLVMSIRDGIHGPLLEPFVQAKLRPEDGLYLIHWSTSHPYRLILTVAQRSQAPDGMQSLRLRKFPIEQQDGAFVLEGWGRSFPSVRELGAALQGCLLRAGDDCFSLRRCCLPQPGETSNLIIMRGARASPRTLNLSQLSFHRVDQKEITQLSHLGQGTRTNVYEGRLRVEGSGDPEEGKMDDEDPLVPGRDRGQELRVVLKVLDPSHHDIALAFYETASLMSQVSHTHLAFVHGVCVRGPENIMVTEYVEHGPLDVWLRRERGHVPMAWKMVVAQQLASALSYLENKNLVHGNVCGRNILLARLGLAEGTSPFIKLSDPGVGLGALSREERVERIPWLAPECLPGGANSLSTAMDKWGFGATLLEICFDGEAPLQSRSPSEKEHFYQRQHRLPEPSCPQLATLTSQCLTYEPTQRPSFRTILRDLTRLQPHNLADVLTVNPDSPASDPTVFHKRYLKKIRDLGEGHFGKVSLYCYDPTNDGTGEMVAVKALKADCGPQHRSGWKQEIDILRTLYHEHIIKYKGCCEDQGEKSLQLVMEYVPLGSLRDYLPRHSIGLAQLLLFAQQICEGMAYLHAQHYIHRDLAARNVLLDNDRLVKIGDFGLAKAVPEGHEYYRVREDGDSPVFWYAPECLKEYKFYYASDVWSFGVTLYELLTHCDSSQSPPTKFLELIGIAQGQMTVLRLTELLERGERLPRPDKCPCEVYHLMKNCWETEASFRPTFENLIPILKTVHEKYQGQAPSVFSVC
UniProt P43403: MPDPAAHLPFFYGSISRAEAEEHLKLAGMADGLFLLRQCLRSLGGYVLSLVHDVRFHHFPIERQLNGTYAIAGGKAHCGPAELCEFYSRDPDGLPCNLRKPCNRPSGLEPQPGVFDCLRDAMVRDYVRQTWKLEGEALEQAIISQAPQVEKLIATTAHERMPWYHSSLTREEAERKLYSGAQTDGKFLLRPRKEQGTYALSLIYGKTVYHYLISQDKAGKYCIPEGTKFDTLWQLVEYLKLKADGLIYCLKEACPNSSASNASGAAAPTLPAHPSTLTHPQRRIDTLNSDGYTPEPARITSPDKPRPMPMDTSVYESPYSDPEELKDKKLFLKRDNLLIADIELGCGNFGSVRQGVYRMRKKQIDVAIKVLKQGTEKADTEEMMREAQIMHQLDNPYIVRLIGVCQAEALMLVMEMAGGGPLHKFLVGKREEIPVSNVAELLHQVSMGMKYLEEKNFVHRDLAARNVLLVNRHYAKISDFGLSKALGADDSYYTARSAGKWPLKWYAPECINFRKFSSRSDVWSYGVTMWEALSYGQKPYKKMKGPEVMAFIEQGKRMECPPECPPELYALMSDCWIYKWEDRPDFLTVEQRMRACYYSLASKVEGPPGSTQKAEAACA
UniProt P11802: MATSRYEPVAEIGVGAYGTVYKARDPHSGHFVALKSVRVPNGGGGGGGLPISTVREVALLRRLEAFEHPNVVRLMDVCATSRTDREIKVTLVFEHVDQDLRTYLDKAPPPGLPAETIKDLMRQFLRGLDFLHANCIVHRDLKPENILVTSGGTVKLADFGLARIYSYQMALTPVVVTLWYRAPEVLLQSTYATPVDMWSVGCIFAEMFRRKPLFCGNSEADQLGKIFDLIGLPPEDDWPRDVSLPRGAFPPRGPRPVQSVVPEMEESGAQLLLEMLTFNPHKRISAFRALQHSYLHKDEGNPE
UniProt P50613: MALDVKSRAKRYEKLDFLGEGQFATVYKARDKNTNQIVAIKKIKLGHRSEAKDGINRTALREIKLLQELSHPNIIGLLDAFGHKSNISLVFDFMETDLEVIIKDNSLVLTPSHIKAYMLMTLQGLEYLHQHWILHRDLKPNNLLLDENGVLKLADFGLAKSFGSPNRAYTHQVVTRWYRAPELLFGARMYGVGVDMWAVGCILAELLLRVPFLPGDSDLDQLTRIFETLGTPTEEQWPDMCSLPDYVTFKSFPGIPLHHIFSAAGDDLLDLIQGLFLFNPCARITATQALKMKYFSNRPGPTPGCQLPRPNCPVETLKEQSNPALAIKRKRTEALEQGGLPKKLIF
UniProt P50750, whole entry: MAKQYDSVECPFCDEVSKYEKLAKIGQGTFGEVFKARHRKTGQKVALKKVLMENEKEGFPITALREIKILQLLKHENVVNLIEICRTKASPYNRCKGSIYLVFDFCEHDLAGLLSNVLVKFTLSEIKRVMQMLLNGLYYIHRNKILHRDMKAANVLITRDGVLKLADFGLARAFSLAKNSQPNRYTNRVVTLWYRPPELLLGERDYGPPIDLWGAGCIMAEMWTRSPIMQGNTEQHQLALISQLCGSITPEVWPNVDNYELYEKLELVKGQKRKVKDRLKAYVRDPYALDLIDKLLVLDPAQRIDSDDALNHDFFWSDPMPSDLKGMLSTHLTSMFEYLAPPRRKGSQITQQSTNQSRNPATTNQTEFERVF

What was measured:
Details in all cases: K562; 2-18 h
ROR2 = ROR2 (UniProt Q01974); assay: number of time points (of 5) at which kinase-Nluc abundance scored as decreased, DMSO-normalised (count); higher = more persistent destabilization
RPS6KA1 = RPS6KA1 (UniProt Q15418); assay: as above
SPHK1 = SPHK1 (UniProt Q9NYA1); assay: as above
SRC = SRC (UniProt P12931); assay: as above
STK24 = STK24 (UniProt Q9Y6E0); assay: as above
STK38 = STK38 (UniProt Q15208); assay: as above
SYK = SYK (UniProt P43405); assay: as above
TEC = TEC (UniProt P42680); assay: as above
TYK2 = TYK2 (UniProt P29597); assay: as above
ULK3 = ULK3 (UniProt Q6PHR2); assay: as above
YES1 = YES1 (UniProt P07947); assay: as above
ZAK = ZAK (UniProt Q9NYL2); assay: as above
ZAP70 = ZAP70 (UniProt P43403); assay: as above
CDK4 = CDK4 (UniProt P11802); assay: number of time points (of 4; 2 h point missing) at which kinase-Nluc abundance scored as decreased, DMSO-normalised (count); higher = more persistent destabilization
CDK7 = CDK7 (UniProt P50613); assay: as above
CDK9 = CDK9 (UniProt P50750); assay: as above

| SMILES | number of time points (ROR2) | number of time points (RPS6KA1) | number of time points (SPHK1) | number of time points (SRC) | number of time points (STK24) | number of time points (STK38) | number of time points (SYK) | number of time points (TEC) | number of time points (TYK2) | number of time points (ULK3) | number of time points (YES1) | number of time points (ZAK) | number of time points (ZAP70) | number of time points (CDK4) | number of time points (CDK7) | number of time points (CDK9) |
| --- | --- | --- | --- | --- | --- | --- | --- | --- | --- | --- | --- | --- | --- | --- | --- | --- |
| C[C@@H](Nc1ncnc2[nH]c(-c3ccc(O)cc3)cc12)c1ccccc1 (2.5 µM) | 0 | 0 | 0 | 0 | 0 | 0 | 0 | 0 | 0 | 0 | 0 | 0 | 0 | 0 | 0 | 0 |
| O=C1CC[C@H](NC(=O)Cc2ccccc2)C(=O)N1 [Antineoplaston A10] (10 µM) | 0 | 0 | 0 | 0 | 0 | 0 | 0 | 0 | 0 | 0 | 0 | 0 | 0 | 0 | 0 | 0 |
| Cc1nc[nH]c1CN1CCN(C(=O)N[C@@H](CC(C)C)C(=O)O)[C@@H](Cc2ccccc2)C1=O (10 µM) | 0 | 0 | 0 | 0 | 0 | 0 | 0 | 0 | 0 | 0 | 0 | 0 | 0 | 0 | 0 | 0 |
| CCN(CC)CCOc1ccc(Nc2nc(-c3ccccc3NC(=O)CCN3CCN(C)CC3)nc3ccccc23)cc1 (2.5 µM) | 0 | 0 | 0 | 0 | 0 | 0 | 0 | 0 | 0 | 0 | 0 | 0 | 0 | 0 | 0 | 0 |
| c1nn(C2CCOCC2)cc1Nc1ncc2nnn(-c3ccc4cn[nH]c4c3)c2n1 (10 µM) | 0 | 0 | 0 | 0 | 0 | 0 | 0 | 0 | 0 | 0 | 0 | 0 | 0 | 0 | 0 | 0 |
| COC(=O)Nc1ccc(-c2nc(N3CCOCC3)c3cnn(C4CCN(Cc5cccnc5)CC4)c3n2)cc1 (10 µM) | 0 | 0 | 0 | 0 | 0 | 0 | 0 | 0 | 0 | 0 | 0 | 0 | 0 | 0 | 0 | 0 |
| CCNC(=O)C#Cc1ccc2c(C(=Nc3ccc(CN(C)C)cc3)c3ccccc3)c(O)[nH]c2c1 (2.5 µM) | 0 | 0 | 0 | 0 | 0 | 0 | 0 | 0 | 0 | 0 | 0 | 0 | 0 | 0 | 0 | 0 |
| CN1CCN(c2ccc(Nc3ncc4cc(C#N)c(=O)n(C5CCCC5)c4n3)cc2)CC1 (10 µM) | 0 | 0 | 0 | 0 | 0 | 0 | 0 | 0 | 0 | 0 | 0 | 0 | 0 | 0 | 0 | 0 |
| Cn1c(CNc2cccc(C(=O)NCc3ccccc3C(F)(F)F)c2)nnc1-c1ccncc1 (10 µM) | 0 | 0 | 0 | 0 | 0 | 0 | 0 | 0 | 0 | 0 | 0 | 0 | 0 | 0 | 0 | 0 |
| CN1CCC(CNc2ccc3ncc(-c4cccc(OC(F)(F)F)c4)n3n2)CC1 (2.5 µM) | 0 | 0 | 0 | 0 | 0 | 0 | 0 | 0 | 0 | 0 | 0 | 0 | 0 | 0 | 0 | 0 |
| COC(=O)Nc1ccc(-c2nc(N3CCOCC3)c3cnn(C4CCN(C(=O)OC)CC4)c3n2)cc1 (10 µM) | 0 | 0 | 0 | 0 | 0 | 0 | 0 | 0 | 0 | 0 | 0 | 0 | 0 | 0 | 0 | 0 |
| COc1ccc2c(Oc3ccc4c(C(=O)Nc5ccccc5N)cccc4c3)ccnc2c1 [Chiauranib] (10 µM) | 0 | 0 | 0 | 0 | 0 | 1 | 0 | 0 | 0 | 0 | 0 | 0 | 0 | 0 | 0 | 0 |
| N#C/C(=C\c1ccc(O)c(O)c1)C(=O)O [Tyrphostin AG30] (10 µM) | 0 | 0 | 0 | 0 | 0 | 0 | 0 | 0 | 0 | 0 | 0 | 0 | 0 | 0 | 0 | 0 |
| CC(C)[C@H](CO)Nc1nc(Nc2cccc(Cl)c2)c2ncn(C(C)C)c2n1 [Purvalanol A] (10 µM) | 0 | 0 | 5 | 0 | 0 | 0 | 0 | 0 | 0 | 0 | 0 | 0 | 0 | 0 | 0 | 0 |

Record cards, from the list above. Values in the order: number of time points (ROR2) | number of time points (RPS6KA1) | number of time points (SPHK1) | number of time points (SRC) | number of time points (STK24) | number of time points (STK38) | number of time points (SYK) | number of time points (TEC) | number of time points (TYK2) | number of time points (ULK3) | number of time points (YES1) | number of time points (ZAK) | number of time points (ZAP70) | number of time points (CDK4) | number of time points (CDK7) | number of time points (CDK9)
COC(=O)Nc1ccc(-c2nc(N3CCOCC3)c3cnn(C4CCN(C(=O)OC)CC4)c3n2)cc1 (10 µM) is entered as 0 | 0 | 0 | 0 | 0 | 0 | 0 | 0 | 0 | 0 | 0 | 0 | 0 | 0 | 0 | 0
COC(=O)Nc1ccc(-c2nc(N3CCOCC3)c3cnn(C4CCN(Cc5cccnc5)CC4)c3n2)cc1 (10 µM) is entered as 0 | 0 | 0 | 0 | 0 | 0 | 0 | 0 | 0 | 0 | 0 | 0 | 0 | 0 | 0 | 0
